Experimental data published in the supplement of paper PMC10849652.
The other results are listed elsewhere or left out.

Amino acid sequences for entries named in this document (tags omitted). A change or cut given only in a name is not applied to a line headed by its entry.
UniProt Q6P1R3: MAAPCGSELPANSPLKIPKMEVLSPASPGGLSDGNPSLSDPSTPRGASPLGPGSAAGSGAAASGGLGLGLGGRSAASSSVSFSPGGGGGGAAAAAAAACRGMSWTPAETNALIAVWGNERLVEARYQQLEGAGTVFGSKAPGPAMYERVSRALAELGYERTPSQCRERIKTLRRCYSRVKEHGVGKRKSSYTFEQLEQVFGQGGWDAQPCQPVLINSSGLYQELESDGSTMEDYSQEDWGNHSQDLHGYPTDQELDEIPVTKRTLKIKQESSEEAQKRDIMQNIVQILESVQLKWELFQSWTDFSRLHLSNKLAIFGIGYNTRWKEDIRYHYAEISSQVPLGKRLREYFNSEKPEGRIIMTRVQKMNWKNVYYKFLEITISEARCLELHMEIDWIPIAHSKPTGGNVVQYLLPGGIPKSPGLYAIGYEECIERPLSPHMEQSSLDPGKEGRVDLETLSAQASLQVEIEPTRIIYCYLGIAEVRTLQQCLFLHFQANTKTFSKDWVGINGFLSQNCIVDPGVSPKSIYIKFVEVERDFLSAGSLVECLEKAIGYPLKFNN
UniProt P43246, whole entry, looked up: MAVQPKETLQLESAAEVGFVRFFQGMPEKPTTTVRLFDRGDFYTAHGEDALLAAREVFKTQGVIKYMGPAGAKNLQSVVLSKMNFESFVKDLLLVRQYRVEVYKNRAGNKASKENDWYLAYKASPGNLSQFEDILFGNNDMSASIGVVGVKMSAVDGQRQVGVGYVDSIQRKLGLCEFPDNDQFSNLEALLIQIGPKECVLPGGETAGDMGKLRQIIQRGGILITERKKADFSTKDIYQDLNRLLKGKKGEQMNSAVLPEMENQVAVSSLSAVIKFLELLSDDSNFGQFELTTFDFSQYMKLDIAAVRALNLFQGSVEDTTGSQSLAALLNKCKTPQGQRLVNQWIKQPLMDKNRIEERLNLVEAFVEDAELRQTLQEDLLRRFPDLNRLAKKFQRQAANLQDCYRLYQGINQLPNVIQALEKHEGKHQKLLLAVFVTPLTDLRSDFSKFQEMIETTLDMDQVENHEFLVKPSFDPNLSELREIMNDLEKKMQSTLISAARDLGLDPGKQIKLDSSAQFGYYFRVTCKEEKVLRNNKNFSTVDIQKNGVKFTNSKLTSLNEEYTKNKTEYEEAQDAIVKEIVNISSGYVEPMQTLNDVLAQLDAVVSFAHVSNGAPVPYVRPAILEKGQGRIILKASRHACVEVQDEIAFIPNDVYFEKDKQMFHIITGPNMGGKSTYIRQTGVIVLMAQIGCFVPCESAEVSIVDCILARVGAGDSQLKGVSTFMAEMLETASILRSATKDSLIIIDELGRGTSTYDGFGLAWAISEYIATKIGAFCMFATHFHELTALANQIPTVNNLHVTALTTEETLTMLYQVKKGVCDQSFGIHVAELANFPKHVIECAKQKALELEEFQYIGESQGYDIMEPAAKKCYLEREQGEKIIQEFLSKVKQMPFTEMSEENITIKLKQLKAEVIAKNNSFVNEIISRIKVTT
UniProt P11586, whole entry, looked up: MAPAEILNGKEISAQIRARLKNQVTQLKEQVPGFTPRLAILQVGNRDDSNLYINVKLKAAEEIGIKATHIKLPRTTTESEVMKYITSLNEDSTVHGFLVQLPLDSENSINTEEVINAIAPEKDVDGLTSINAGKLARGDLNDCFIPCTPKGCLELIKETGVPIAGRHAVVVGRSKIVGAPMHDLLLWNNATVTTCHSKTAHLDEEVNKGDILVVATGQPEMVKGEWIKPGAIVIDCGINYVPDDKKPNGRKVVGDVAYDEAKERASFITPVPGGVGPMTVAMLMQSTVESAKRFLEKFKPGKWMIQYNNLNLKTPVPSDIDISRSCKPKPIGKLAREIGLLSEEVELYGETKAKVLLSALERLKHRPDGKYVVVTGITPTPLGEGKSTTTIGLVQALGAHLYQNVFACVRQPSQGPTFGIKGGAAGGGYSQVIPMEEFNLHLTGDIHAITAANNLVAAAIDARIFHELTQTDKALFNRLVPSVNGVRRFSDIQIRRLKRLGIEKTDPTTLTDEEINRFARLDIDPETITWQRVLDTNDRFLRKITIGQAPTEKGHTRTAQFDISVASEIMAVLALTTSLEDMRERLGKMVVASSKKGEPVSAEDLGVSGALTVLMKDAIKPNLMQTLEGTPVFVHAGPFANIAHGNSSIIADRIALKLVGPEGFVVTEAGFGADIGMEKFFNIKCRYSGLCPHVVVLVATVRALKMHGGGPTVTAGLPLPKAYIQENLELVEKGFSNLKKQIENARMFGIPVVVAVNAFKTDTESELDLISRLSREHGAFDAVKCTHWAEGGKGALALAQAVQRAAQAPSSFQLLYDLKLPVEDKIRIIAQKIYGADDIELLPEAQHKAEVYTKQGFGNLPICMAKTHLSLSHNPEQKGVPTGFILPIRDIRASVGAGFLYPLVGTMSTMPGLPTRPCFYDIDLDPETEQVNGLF
UniProt O14950, whole entry, looked up: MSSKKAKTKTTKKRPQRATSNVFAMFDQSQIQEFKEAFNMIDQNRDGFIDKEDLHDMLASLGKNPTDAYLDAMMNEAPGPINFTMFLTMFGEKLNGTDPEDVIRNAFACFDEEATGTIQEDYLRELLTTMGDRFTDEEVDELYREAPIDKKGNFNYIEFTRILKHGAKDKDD
UniProt P03905, whole entry, looked up: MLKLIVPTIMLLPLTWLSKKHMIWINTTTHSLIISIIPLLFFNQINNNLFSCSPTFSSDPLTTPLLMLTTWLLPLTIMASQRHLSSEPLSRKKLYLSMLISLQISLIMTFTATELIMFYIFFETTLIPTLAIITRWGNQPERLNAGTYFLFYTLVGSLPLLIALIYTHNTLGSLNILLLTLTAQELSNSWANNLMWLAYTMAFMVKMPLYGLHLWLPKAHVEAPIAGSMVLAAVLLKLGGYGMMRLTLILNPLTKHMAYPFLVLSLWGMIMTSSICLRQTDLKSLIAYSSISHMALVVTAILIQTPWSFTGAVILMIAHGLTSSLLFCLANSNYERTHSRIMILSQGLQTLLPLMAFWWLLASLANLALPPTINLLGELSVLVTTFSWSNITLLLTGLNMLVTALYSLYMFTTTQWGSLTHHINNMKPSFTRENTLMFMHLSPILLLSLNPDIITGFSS
UniProt P35749, whole entry, looked up: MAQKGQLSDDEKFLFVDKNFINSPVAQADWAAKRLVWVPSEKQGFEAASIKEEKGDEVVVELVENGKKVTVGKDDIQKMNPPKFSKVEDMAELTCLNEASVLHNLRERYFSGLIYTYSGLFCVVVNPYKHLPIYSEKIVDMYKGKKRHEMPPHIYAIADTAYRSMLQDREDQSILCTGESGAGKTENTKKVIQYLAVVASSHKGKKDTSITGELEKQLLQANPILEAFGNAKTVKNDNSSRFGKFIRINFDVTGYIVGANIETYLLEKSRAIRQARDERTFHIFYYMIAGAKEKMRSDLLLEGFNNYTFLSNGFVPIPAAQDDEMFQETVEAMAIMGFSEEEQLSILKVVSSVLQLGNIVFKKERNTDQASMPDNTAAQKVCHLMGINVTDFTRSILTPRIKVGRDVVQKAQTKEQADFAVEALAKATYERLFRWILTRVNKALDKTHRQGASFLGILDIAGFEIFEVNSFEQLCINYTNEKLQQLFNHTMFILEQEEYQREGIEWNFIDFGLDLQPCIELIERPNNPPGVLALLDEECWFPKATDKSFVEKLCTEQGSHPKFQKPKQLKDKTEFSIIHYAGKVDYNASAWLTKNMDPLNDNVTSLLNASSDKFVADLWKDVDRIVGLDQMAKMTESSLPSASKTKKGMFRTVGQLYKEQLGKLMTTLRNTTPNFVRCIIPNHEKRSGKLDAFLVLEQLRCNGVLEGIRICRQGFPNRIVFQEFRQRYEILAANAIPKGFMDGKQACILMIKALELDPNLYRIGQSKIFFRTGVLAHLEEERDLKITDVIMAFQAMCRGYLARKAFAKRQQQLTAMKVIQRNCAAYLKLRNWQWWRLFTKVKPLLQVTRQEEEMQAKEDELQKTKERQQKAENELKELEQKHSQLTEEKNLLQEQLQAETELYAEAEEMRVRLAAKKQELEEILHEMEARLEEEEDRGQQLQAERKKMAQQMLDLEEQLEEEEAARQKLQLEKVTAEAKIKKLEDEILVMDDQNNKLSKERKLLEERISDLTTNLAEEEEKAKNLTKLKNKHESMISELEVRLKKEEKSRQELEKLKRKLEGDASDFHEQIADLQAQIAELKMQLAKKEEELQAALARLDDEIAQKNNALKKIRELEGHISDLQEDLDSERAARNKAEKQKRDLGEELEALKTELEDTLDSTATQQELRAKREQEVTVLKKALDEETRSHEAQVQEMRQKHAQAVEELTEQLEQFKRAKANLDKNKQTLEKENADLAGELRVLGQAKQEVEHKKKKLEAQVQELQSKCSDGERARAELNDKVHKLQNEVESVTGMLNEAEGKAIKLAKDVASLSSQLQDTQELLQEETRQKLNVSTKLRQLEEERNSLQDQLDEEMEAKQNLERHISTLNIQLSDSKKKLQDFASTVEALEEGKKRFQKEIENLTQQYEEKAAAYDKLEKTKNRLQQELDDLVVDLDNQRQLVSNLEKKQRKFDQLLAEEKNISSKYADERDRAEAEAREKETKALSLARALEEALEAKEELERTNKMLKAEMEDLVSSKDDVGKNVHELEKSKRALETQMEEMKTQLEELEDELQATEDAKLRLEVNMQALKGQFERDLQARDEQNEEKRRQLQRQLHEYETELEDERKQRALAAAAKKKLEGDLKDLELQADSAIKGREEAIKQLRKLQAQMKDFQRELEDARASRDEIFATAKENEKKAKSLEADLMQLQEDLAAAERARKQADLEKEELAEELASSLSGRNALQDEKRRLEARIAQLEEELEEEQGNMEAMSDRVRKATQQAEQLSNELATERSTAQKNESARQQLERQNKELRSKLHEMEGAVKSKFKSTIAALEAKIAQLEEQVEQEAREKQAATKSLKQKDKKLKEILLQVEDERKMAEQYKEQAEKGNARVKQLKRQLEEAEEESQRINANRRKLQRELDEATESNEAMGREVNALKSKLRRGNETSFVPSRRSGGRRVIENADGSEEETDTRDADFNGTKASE
UniProt P00846: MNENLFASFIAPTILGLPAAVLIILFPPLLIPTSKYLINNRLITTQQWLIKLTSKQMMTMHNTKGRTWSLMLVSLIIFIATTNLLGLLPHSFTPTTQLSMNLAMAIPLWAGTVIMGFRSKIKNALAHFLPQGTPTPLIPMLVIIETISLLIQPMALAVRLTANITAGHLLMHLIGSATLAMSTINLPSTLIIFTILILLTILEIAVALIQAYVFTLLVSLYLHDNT
UniProt Q9BUK6: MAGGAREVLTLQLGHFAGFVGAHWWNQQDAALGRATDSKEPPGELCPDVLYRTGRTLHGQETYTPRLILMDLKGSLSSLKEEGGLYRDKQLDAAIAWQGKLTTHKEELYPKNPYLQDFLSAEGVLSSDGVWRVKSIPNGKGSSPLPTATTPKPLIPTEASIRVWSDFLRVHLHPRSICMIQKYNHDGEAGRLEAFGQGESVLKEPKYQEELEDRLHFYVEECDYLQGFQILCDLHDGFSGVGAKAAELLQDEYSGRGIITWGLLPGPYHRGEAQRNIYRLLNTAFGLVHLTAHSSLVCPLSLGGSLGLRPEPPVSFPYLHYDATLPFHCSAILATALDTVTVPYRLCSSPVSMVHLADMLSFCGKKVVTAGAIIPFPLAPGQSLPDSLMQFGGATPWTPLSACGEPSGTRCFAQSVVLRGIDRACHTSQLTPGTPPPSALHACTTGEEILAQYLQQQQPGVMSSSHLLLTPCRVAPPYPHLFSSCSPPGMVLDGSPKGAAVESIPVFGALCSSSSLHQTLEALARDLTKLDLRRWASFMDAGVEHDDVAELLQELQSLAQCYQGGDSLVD
UniProt P84157: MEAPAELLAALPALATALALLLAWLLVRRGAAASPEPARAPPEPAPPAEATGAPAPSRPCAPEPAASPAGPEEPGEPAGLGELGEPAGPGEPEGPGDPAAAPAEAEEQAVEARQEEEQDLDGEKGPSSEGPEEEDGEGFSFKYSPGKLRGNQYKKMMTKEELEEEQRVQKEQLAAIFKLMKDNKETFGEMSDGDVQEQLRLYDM
UniProt Q96E29: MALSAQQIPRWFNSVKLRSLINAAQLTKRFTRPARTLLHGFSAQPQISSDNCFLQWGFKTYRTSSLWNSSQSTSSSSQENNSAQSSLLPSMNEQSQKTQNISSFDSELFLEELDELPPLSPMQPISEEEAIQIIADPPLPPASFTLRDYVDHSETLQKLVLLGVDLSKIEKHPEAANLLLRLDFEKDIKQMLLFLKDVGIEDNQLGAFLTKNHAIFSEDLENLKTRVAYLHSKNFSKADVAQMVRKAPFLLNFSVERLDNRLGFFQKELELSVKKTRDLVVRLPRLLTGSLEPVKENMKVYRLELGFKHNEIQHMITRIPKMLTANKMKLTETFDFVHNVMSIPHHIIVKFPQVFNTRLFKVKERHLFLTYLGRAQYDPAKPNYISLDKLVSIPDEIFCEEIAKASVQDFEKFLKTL

What was measured:
Assay in all cases: log2 fold change, soluble protein after heating vs DMSO (PISA); higher = thermal stabilisation; K562 cells, 10 uM, 30 min; active = over 0.2 and 3.5 SD of the protein, either way, in both replicates (recomputed)
saracatinib = compound: CN1CCN(CCOc2cc(OC3CCOCC3)c3c(Nc4c(Cl)ccc5c4OCO5)ncnc3c2)CC1 [saracatinib]
In short: (§1)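 K562 cells at 2×10^6 cells/mL were given 10 μM compound for 30 min. Aliquots then went through 3 min of heating across 48°C-58°C, were pooled, and were extracted in PBS with 0.5% NP-40 at 4°C, and the supernatant after 21,000xg for 90 min was quantified by TMTpro 16plex LC-MS/MS with channel sums equalised. Thermal stability relative to control samples, from duplicates, is given as log2 fold change.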

sotrastaurin = compound: CN1CCN(c2nc(C3=C(c4c[nH]c5ccccc45)C(=O)NC3=O)c3ccccc3n2)CC1 [sotrastaurin]
In short: as §1

Tubastatin A = compound: CN1CCc2c(c3ccccc3n2Cc2ccc(C(=O)NO)cc2)C1 [Tubastatin A]
In short: as §1

[1] = compound: CNC(=O)C1=CC=CC=C1NC2=NC(=NC=C2Cl)NC3=C(C=C(C=C3)N4CCOCC4)OC
In short: as §1

defactinib = compound: CNC(=O)c1ccc(Nc2ncc(C(F)(F)F)c(NCc3nccnc3N(C)S(C)(=O)=O)n2)cc1 [defactinib]
In short: as §1

rucaparib = compound: CNCc1ccc(-c2[nH]c3cc(F)cc4c3c2CCNC4=O)cc1 [rucaparib]
In short: as §1

[2] = compound: CNc1nc(-c2ccc3c(N)n[nH]c3c2)cc(N2C[C@@H](C(=O)NC3CCCCC3)CC[C@H]2C)n1
In short: as §1

encorafenib = compound: COC(=O)N[C@@H](C)CNc1nccc(-c2cn(C(C)C)nc2-c2cc(Cl)cc(NS(C)(=O)=O)c2F)n1 [encorafenib]
In short: as §1

[3] = compound: COC(=O)[C@H](CCSC)NC(=O)C1=C(C=C(C=C1)NC[C@H](CS)N)C2=CC=CC=C2
In short: as §1

Target	log2 fold change (saracatinib)	log2 fold change (sotrastaurin)	log2 fold change (Tubastatin A)	log2 fold change [1]	log2 fold change (defactinib)	log2 fold change (rucaparib)	log2 fold change [2]	log2 fold change (encorafenib)	log2 fold change [3]
MRPS31 (UniProt Q92665)	inactive: 0.031	inactive: -0.088	inactive: 0.053	inactive: 0.025	inactive: 0.027	inactive: 0.031	inactive: 0.078	inactive: 0.041	inactive: 0.016
MSANTD2 (UniProt Q6P1R3)	inactive: -0.248	inactive: 0.105	inactive: 0.032		inactive: -0.113	inactive: -0.32	inactive: 0.03	inactive: -0.067	inactive: -0.01
MRPS2 (UniProt Q9Y399)	inactive: -0.243	inactive: -0.145	inactive: 0.036	inactive: -0.021	inactive: 0.034	inactive: 0.104	inactive: 0.035	inactive: 0.084	inactive: -0.088
MSH2 (UniProt P43246)	inactive: -0.006	inactive: -0.072	inactive: 0.041	inactive: 0.065	inactive: -0.153	inactive: -0.06	inactive: 0.031	inactive: 0.062	inactive: -0.037
MYH10 isoform 3 (UniProt P35580)	inactive: 0.019	inactive: -0.058	inactive: 0.002	inactive: 0.024	inactive: -0.039	inactive: -0.056	inactive: -0.005	inactive: 0.017	inactive: -0.023
MTHFD1 (UniProt P11586)	inactive: 0.004	inactive: 0.018	inactive: -0.009	inactive: 0.003	inactive: -0.046	inactive: -0.032	inactive: 0.058	inactive: 0.04	inactive: -0.036
MT-ND1 (UniProt P03886)	inactive: 0.1	inactive: -0.005	inactive: 0.123	inactive: -0.025	inactive: -0.068	inactive: -0.041	inactive: -0.11	inactive: 0.017	inactive: -0.058
MYLK (UniProt Q15746)	inactive: 0.177	inactive: -0.036	inactive: 0.036	inactive: 0.716	inactive: -0.034	inactive: -0.083	inactive: -0.079	inactive: 0.337	inactive: -0.216
MRPS24 (UniProt Q96EL2)	inactive: -0.153	inactive: -0.124	inactive: 0.024	inactive: 0.067	inactive: 0.041	inactive: 0.153	inactive: 0.137	inactive: 0.08	inactive: -0.108
MYL12B (UniProt O14950)	inactive: 0.057	inactive: -0.012	inactive: 0.019	inactive: 0.007	inactive: -0.036	inactive: 0.009	inactive: -0.041	inactive: -0.012	inactive: -0.018
MRPS21 (UniProt P82921)	inactive: -0.193	inactive: 0.036	inactive: -0.056	inactive: 0.038	inactive: -0.075	inactive: -0.016	inactive: 0.127	inactive: 0.045	inactive: -0.075
MT-ND4 (UniProt P03905)	inactive: 0.048	inactive: -0.025	inactive: 0.061	inactive: 0.053	inactive: -0.143	inactive: -0.077	inactive: -0.145	inactive: 0.058	inactive: 0.057
MRPS6 (UniProt P82932)	inactive: -0.197	inactive: -0.058	inactive: 0.011	inactive: -0.003	inactive: -0.023	inactive: 0.056	inactive: 0.092	inactive: 0.016	inactive: -0.126
MRPS25 (UniProt P82663)	inactive: -0.097	inactive: -0.059	inactive: 0.084	inactive: -0.021	inactive: -0.072	inactive: 0.129	inactive: 0.233	inactive: -0.016	inactive: -0.017
MYH11 isoform 2 (UniProt P35749)	inactive: 0.069	inactive: -0.024	inactive: -0.025	inactive: 0.03	inactive: -0.039	inactive: -0.034	inactive: 0.009	inactive: 0.001	inactive: -0.022
MRPS10 (UniProt P82664)	inactive: -0.029	inactive: -0.076	inactive: 0.035	inactive: -0.034	inactive: -0.071	inactive: 0.006	inactive: 0.097	inactive: 0.014	inactive: -0.055
MT-ATP6 (UniProt P00846)	inactive: 0.253	inactive: -0.059	inactive: 0.122	inactive: -0.018	inactive: -0.095	inactive: 0.06	inactive: -0.176	inactive: 0.016	inactive: 0.05
MTOR (UniProt P42345)	inactive: -0.076	inactive: 0.088	inactive: 0.002	inactive: -0.005	inactive: -0.09	inactive: 0	inactive: -0.009	inactive: 0.041	inactive: -0.02
MSTO1 (UniProt Q9BUK6)	inactive: 0.047	inactive: 0.025	inactive: 0.023	inactive: -0.031	inactive: -0.045	inactive: -0.029	active: 0.235	inactive: 0.04	inactive: 0.034
MTA3 (UniProt Q9BTC8)	inactive: -0.001	inactive: -0.295	inactive: 0.062	inactive: -0.049		inactive: -0.002	inactive: -0.002	inactive: 0.094	
MTCH2 (UniProt E9PIE4)	inactive: -0.013	inactive: 0.042		inactive: -0.018	inactive: -0.003	inactive: 0.057	inactive: -0.075	inactive: -0.038	inactive: -0.011
MXRA7 (UniProt P84157)	inactive: 0.127	inactive: 0.027	inactive: -0.02	inactive: 0.007	inactive: -0.104	inactive: -0.093	inactive: -0.033	inactive: 0.008	inactive: -0.025
MRPS35 (UniProt P82673)	inactive: -0.18	inactive: -0.033	inactive: 0.078	inactive: -0.022	inactive: 0.043	inactive: 0.071	inactive: 0.062	inactive: 0.039	inactive: 0.007
MUL1 (UniProt Q969V5)	inactive: 0.054	inactive: 0.079	inactive: 0.047	inactive: 0.056	inactive: 0.059	inactive: 0.072	inactive: -0.018	inactive: -0.074	inactive: 0.079
MRPS27 isoform 2 (UniProt Q92552)	inactive: -0.107	inactive: -0.089	inactive: 0.06	inactive: 0.071	inactive: -0.012	inactive: 0.069	inactive: 0.108	inactive: 0.109	inactive: -0.045
MTERF3 (UniProt Q96E29)	inactive: -0.009	inactive: -0.172	inactive: 0.133	inactive: -0.057			inactive: -0.11		
MRPS26 (UniProt Q9BYN8)	inactive: -0.094	inactive: -0.013	inactive: 0.156	inactive: 0.003	inactive: -0.01	inactive: 0.093	inactive: 0.122	inactive: 0.089	inactive: 0.003
MVB12A (UniProt Q96EY5)	inactive: 0.011	inactive: 0.003	inactive: 0.014	inactive: 0.009	inactive: -0.082	inactive: 0.02	inactive: -0.023	inactive: 0.034	inactive: -0.159
MTHFS (UniProt P49914)	inactive: -0.023	inactive: -0.017	inactive: 0.043	inactive: 0.065	inactive: -0.053	inactive: 0.013	inactive: -0.004	inactive: 0.007	inactive: 0.014

Some of the entries above, set out differently.

| Target | log2 fold change (saracatinib) | log2 fold change (sotrastaurin) | log2 fold change (Tubastatin A) | log2 fold change [1] | log2 fold change (defactinib) | log2 fold change (rucaparib) | log2 fold change [2] | log2 fold change (encorafenib) | log2 fold change [3] |
| --- | --- | --- | --- | --- | --- | --- | --- | --- | --- |
| MTHFD1 (UniProt P11586) | inactive: 0.004 | inactive: 0.018 | inactive: -0.009 | inactive: 0.003 | inactive: -0.046 | inactive: -0.032 | inactive: 0.058 | inactive: 0.04 | inactive: -0.036 |
| MT-ND1 (UniProt P03886) | inactive: 0.1 | inactive: -0.005 | inactive: 0.123 | inactive: -0.025 | inactive: -0.068 | inactive: -0.041 | inactive: -0.11 | inactive: 0.017 | inactive: -0.058 |
